PubChem BioAssay AID1487 (National Center for Advancing Translational Sciences (NCATS), 2009)
Values joined by “and” are separate entries in the source; they are usually repeats but may differ in a detail not shown here. Equal entries are not always repeated. The list shows a part of the results. The main result of the screen is listed elsewhere. These columns were measured beside it and carry no call. The list favours compounds with an active or inconclusive main result. Potencies come from curve fits of mixed quality, noted in brackets.

Assay: qHTS Assay for Modulators of Lamin A Splicing
Details: HeLa LMNA splicing GFP/RFP minigene ratio, 48 h
Outline: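 S3 HeLa cells stably expressing lamin A-EGFP splicing minigene plus DsRed2, 600 cells/well, 48 h compound exposure at 37C. Laser-scanning cytometry; analysed as GFP (500-530 nm)/RFP (575-640 nm) total intensity ratio; 0.5% DMSO vehicle.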

[1] = measured here: RFP viability control channel
[2] = measured here: GFP splicing reporter channel

Compound: CCc1ccc(OCC(=O)N(Cc2ccc(OC)cc2)C2CCS(=O)(=O)C2)cc1 (stereo unspecified)
- AC50 [1]: 5.62 µM [falling, full curve, poor fit]

Compound: CC(C)N1CCN(Cc2ccc(C#CCCO)cc2)CC1CCO (stereo unspecified)
- AC50 [2]: 0.0631 µM [rising, partial curve, poor fit]
- AC50 [1]: 0.0126 µM [rising, full curve, poor fit]

Compound: Cc1n[nH]c(C)c1Sc1ccccc1[N+](=O)[O-]
- AC50 [2]: 0.0224 µM [rising, full curve, poor fit]

Compound: Cc1cc(C)cc(-n2ccnc2SCC(=O)Nc2nccs2)c1
- AC50 [2]: 11.2 µM [rising, partial curve]

Compound: COc1ccc2nc(NC(=S)N(C)C)sc2c1
- AC50 [1]: 12.6 µM [rising, partial curve]

Compound: CC(=O)Nc1ccc(Oc2ccc(-c3noc(C)n3)cc2)cc1
- AC50 [2]: 10 µM [rising, partial curve, poor fit]
- AC50 [1]: 10 µM [rising, partial curve, poor fit]

Compound: COc1ccc2c(c1OC)C(=O)N1c3ccccc3C(=O)N(c3ccccc3F)C21 (stereo unspecified)
- AC50 [1]: 31.6 µM [rising, single point]

Compound: O=C1C(C2=C(O)c3ccccc3C2=O)=Nc2ccccc21
- AC50 [1]: 35.5 µM [falling, single point]

Compound: N#CCCN(Cc1cccnc1)S(=O)(=O)c1ccc(S(=O)(=O)N2CCCCCC2)cc1
- AC50 [1]: 15.8 µM [rising, partial curve]

Compound: O=[N+]([O-])c1cc(S(=O)(=O)C(F)(F)F)ccc1Sc1nc2ccccc2s1
- AC50 [2]: 1.26 µM [falling, single point]
- AC50 [1]: 0.316 µM [falling, partial curve]

Compound: Clc1ccccc1-c1ccc2ncnc(N3CCNCC3)c2c1
- AC50 [1]: 35.5 µM [falling, single point]

Compound: COc1ccc(N2CCN(C(=O)c3ccc4ccccc4n3)CC2)cc1
- AC50 [2]: 0.501 µM [rising, full curve, poor fit]

Compound: CCOC(=O)/C(C)=C1\NC(C)(C)Cc2ccccc21
- AC50 [1]: 31.6 µM [rising, single point]

Compound: CCOc1ccc(C(=O)N2CCN(Cc3cc(=O)n4nc(-c5ccccc5Cl)sc4n3)CC2)cc1
- AC50 [2]: 0.158 µM [rising, full curve, poor fit]

Compound: CN(Cc1nc(-c2ccncc2)no1)S(=O)(=O)c1ccc(Br)cc1
- AC50 [1]: 22.4 µM [rising, single point]

Compound: CC(=O)Oc1cccc(-c2nc3ccccc3c(=O)o2)c1
- AC50 [1]: 4.47 µM [falling, partial curve]

Compound: CN(C)c1ccc([C@@H]2[C@@H]([N+](=O)[O-])[C@H]3C=Cc4ccccc4N3[C@H]2C(=O)c2ccc(Cl)cc2)cc1
- AC50 [1]: 2.82 µM [rising, partial curve]

Compound: COc1ccc(C(=O)Nc2ccc(S(=O)(=O)N3CCCCC3C)cc2)c(OC)c1OC (stereo unspecified)
- AC50 [1]: 20 µM [rising, single point]

Compound: Cc1ccc(NC(=O)CCOc2ccccc2C)cc1F
- AC50 [2]: 0.141 µM [falling, full curve, poor fit]
- AC50 [1]: 0.0794 µM [falling, full curve, poor fit]

Compound: C[N+]12CCCCC1C(COC(=O)c1ccc3c(c1)OCO3)CCC2 (stereo unspecified)
- AC50 [2]: 3.55 µM [rising, partial curve, poor fit]

Compound: CC(=O)Oc1ccc(Cl)cc1/C=C/c1cc(OC(C)=O)c2ccccc2n1
- AC50 [1]: 35.5 µM [rising, single point]

Compound: c1csc(Cc2nc3ccccc3[nH]2)c1
- AC50 [1]: 2.24 µM [rising, partial curve]

Compound: Cc1nc2ccc(NC(=O)C3CCN(S(=O)(=O)c4cccs4)CC3)cc2s1
- AC50 [1]: 22.4 µM [rising, single point]

Compound: Cc1cc(C)cc(N2C(=O)CN(Cc3sccc3C)C2=S)c1
- AC50 [1]: 35.5 µM [rising, single point]

Compound: Cc1cccc(N2CCN(C(=O)C3CCN(c4nnc(-n5cccc5)s4)CC3)CC2C)c1 (stereo unspecified)
- AC50 [1]: 31.6 µM [rising, single point]

Compound: COc1ccccc1NC(=O)CC1Nc2ccccc2NC1=O (stereo unspecified)
- AC50 [1]: 35.5 µM [rising, single point]

Compound: COC(=O)[C@@]1(Cc2ccc(OC)cc2)[C@H]2c3cc(C(=O)N(C)C)n(CCSCCO)c3C[C@H]2CN1C(=O)c1ccccc1
- AC50 [1]: 0.00447 µM [falling, full curve, poor fit]

Compound: O=C(NCCOc1ccc(Cl)cc1)C1CC(=O)N(c2ccc(F)cc2)C1 (stereo unspecified)
- AC50 [1]: 0.398 µM [falling, partial curve, poor fit]

Compound: Cc1ccc(NC(=O)c2cc(S(=O)(=O)NCCC3=CCCCC3)ccc2F)cc1
- AC50 [2]: 20 µM [falling, partial curve, poor fit]
- AC50 [1]: 2.82 µM [rising, partial curve]

Compound: COc1ccccc1N1CCN(C/C=C/c2ccc(N(C)C)cc2)CC1
- AC50 [2]: 12.6 µM [rising, single point]

Compound: Cc1ccc(NCC(=O)N/N=C/c2cccc(Oc3ccccc3)c2)cc1
- AC50 [1]: 35.5 µM [rising, single point]

Compound: Cc1nnc(SCC(=O)N2c3ccccc3C(C)(c3ccc(Cl)cc3)CC2(C)C)s1 (stereo unspecified)
- AC50 [1]: 35.5 µM [rising, single point]

Compound: COc1ccc(CCC(=O)Nc2cccc(S(=O)(=O)N(C)C)c2)cc1OC
- AC50 [1]: 22.4 µM [rising, single point]

Compound: Cc1ccc(CNc2ccc(S(=O)(=O)N3CCOCC3)cc2[N+](=O)[O-])cc1
- AC50 [2]: 31.6 µM [rising, single point]
- AC50 [1]: 35.5 µM [rising, single point]

Compound: O=C(COC(=O)CCCN1C(=O)c2ccccc2C1=O)Nc1cc(Cl)cc(Cl)c1
- AC50 [1]: 0.355 µM [falling, partial curve, poor fit]

Compound: Cc1ccc(C(=O)Nc2nc(-c3cc(Cl)sc3Cl)cs2)cc1
- AC50 [2]: 22.4 µM [rising, single point]
- AC50 [1]: 11.2 µM [rising, partial curve]

Compound: O=C(NCCCN1CCOCC1)c1ccc(N2CCCC2)c([N+](=O)[O-])c1
- AC50 [2]: 6.31 µM [falling, partial curve, poor fit]

Compound: Cc1nnc(SCC(=O)N2CCN(S(=O)(=O)c3ccc(Cl)cc3)CC2)[nH]c1=O
- AC50 [2]: 35.5 µM [rising, single point]
- AC50 [1]: 14.1 µM [rising, single point]

Compound: Brc1c(CSc2nc3ccccc3s2)nc2ncccn12
- AC50 [1]: 12.6 µM [rising, partial curve, poor fit]

Compound: COc1ccccc1NC(=O)CSc1nnc(-c2ccccn2)n1Cc1ccco1
- AC50 [1]: 0.631 µM [falling, single point]

Compound: Oc1ccccc1C=NC1=NN(c2cccc(C(F)(F)F)c2)CC1
- AC50 [1]: 35.5 µM [rising, single point]

Compound: COc1ccc(C)cc1-n1nnnc1SCc1csc(C)n1
- AC50 [2]: 35.5 µM [rising, single point]

Compound: CC1CCCCN1S(=O)(=O)c1ccc2c(c1)oc(=O)n2CC(=O)Nc1ccc(Cl)cc1 (stereo unspecified)
- AC50 [1]: 0.141 µM [rising, full curve]

Compound: CCCCNc1cc(C(=O)O)cc(S(N)(=O)=O)c1Oc1ccccc1
- AC50 [2]: 0.141 µM [falling, full curve]
- AC50 [1]: 8.91 µM [falling, partial curve, poor fit] and 5.62 µM [falling, partial curve, poor fit]

Compound: COc1ccccc1NC(=S)N1CCN(C(c2ccccc2)c2ccccc2)CC1
- AC50 [1]: 0.316 µM [falling, partial curve, poor fit]

Compound: Cc1ccc(C(=O)Nc2ccccc2C(=O)NC(Cc2ccccc2)C(=O)O)cc1 (stereo unspecified)
- AC50 [2]: 0.794 µM [rising, full curve, poor fit]
- AC50 [1]: 0.794 µM [rising, full curve, poor fit]

Compound: CCc1ccc(-c2nn(CC(=O)NC3CCCCC3)c3c2cnc2ccc(OC)cc23)cc1
- AC50 [2]: 1.78 µM [falling, partial curve, poor fit]

Compound: CC(CN1CC(=O)NC(=O)C1)N1CC(=O)NC(=O)C1 (stereo unspecified)
- AC50 [1]: 11.2 µM [rising, partial curve, poor fit]

Compound: Cc1ccc(C2C3=C(Nc4[nH]n(-c5ccccc5)c(=O)c42)c2ccccc2C3=O)cc1 (stereo unspecified)
- AC50 [2]: 20 µM [rising, partial curve, poor fit]
- AC50 [1]: 12.6 µM [rising, partial curve]

Compound: COc1c2c(nc3occc13)C(CC=C(C)C)(OC)C(O)CC2 (stereo unspecified)
- AC50 [2]: 5.62 µM [rising, partial curve, poor fit]

Compound: C=CCc1ccccc1OCC(O)CN1CCN(CCN2C(=O)c3cccc4cccc(c34)C2=O)CC1 (stereo unspecified)
- AC50 [1]: 35.5 µM [falling, single point]

Compound: CCCSc1nc(N2CCOCC2)c2c(c1C#N)CCCC2
- AC50 [2]: 35.5 µM [rising, single point]
- AC50 [1]: 25.1 µM [rising, single point]

Compound: FC(F)Oc1ccc(-c2csc(Cc3nnc4n3CCCCC4)n2)cc1
- AC50 [2]: 15.8 µM [rising, single point]
- AC50 [1]: 31.6 µM [rising, single point]

Compound: O=C(NNC(=S)NC(=O)c1sc2ccccc2c1Cl)c1ccc(Cl)cc1
- AC50 [2]: 3.55 µM [falling, single point]
- AC50 [1]: 0.251 µM [falling, partial curve, poor fit]

Compound: CCc1cccc(CC)c1NC(=O)COc1ccccc1C(=O)c1cc(C#N)c(=O)n(C2CCCCC2)c1
- AC50 [2]: 14.1 µM [rising, single point]
- AC50 [1]: 14.1 µM [rising, single point]

Compound: Cc1ccccc1N=C1SC(CC(=O)Nc2ccc3ccccc3c2)C(=O)N1Cc1ccccn1 (stereo unspecified)
- AC50 [2]: 35.5 µM [falling, single point]
